Assay results: PubChem BioAssay AID662 (National Center for Advancing Translational Sciences (NCATS), 2007)
The other results are listed elsewhere or left out. These are further read-outs of the screen, such as a control signal, another cell line or another target. No call is given for them. Most of these compounds were active or inconclusive in the main read-out, so they are no random draw. Potencies come from curve fits of mixed quality, noted in brackets.

Assay: Cell signaling CRE-BLA (Fsk stim)
Settings: CHO CRE-bla reporter (cAMP response element driving beta-lactamase), forskolin EC10, beta-lactamase ratio; measured here: 460 nm blue channel
Procedure, shortened: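 Titrated compounds plus EC10 NKH 477 on CHO CRE-bla cells, 3 h, 37 °C. CCF4, 2 h RT. Ratio 460/530 nm → AC50.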

SMILES | AC50
Cc1ccc(C)c2[nH]c(=O)c(CN(Cc3ccco3)C(=O)Nc3ccccc3)cc12 | 5.01 µM [falling, partial curve, poor fit]
CCNc1cc2n(c(=O)n1)CCc1cc(OC)c(OC)cc1-2 | 10 µM [rising, partial curve]
COCCn1c(=O)c(-c2cc(F)cc(F)c2)nc2cncnc21 | 12.6 µM [rising, partial curve]
CCc1nnc(NC(=O)CSc2nnc(CNc3ccc(F)cc3)n2C2CCCCC2)s1 | 10 µM [falling, single point]
COc1ccc(S(=O)(=O)N(Cc2ccccc2)Cc2nc(-c3ccccc3)no2)cc1 | 15.8 µM [falling, partial curve]
COc1ccc(NC(=O)CCc2nc(-c3ccccc3F)no2)cc1 | 0.501 µM [falling, full curve]
CCCc1c(C)c2ccccc2[nH]c1=O | 10 µM [rising, partial curve]
O=C(c1ccncc1)N1CCC2(CCCN(C(c3ccccc3)c3ccccc3)C2)CC1 | 12.6 µM [rising, partial curve]
O=C(Oc1cccnc1)c1ccc(Cl)c(Cl)c1 | 0.00631 µM [falling, full curve, poor fit]
COc1ccc(S(=O)(=O)N2CCN(c3ccc(C)cc3C)CC2)cc1OC | 25.1 µM [falling, single point]
COc1ccc(Oc2ncc3ncc(=O)n(CCC#N)c3n2)cc1 | 12.6 µM [rising, single point]
CCN(CCNC(=O)CS(=O)(=O)Cc1nc(-c2cccc(OC)c2)oc1C)c1ccccc1 | 12.6 µM [falling, partial curve]
COc1ccccc1-c1nc(C#N)c(N2CCC(Cc3ccccc3)CC2)o1 | 3.16 µM [rising, partial curve]
COc1ccc(-c2cc(NCc3ccccn3)n3ncnc3n2)cc1 | 0.794 µM [rising, partial curve]
CN1/C(=C\P(=O)(N(C)C)N(C)C)C(C)(C)c2ccccc21 | 5.01 µM [falling, single point]
Cc1ccc(C)c2[nH]c(=O)c(CCNC(=O)CC(C)(C)C)cc12 | 10 µM [rising, partial curve]
CCCn1c(N2CCN(CC(=O)c3c(C)n(C)c4ccccc34)CC2)nc2c1c(=O)[nH]c(=O)n2C | 6.31 µM [rising, partial curve]
O=C(Nc1ccccc1)N(Cc1ccc2c(c1)OCO2)Cc1nc2ccccc2c(=O)[nH]1 | 5.01 µM [falling, single point]
O=C(NC1CCSC1=O)c1ccc(Cl)cc1 (stereo not drawn) | 1.26 µM [falling, partial curve]
NC(=O)C1CCN(C(=O)c2cc(S(=O)(=O)N3CCOCC3)c(Cl)cc2Cl)CC1 | 12.6 µM [falling, single point]
O=C(NCc1n[nH]c(=S)n1-c1cccc(Cl)c1)c1ccc(S(=O)(=O)N2CCCC2)cc1 | 0.126 µM [falling, full curve, poor fit]
Cc1nc(N2CCN(Cc3ccc4c(c3)OCO4)CC2)nc2c1C(=O)CC(c1ccco1)C2 (stereo not drawn) | 1.26 µM [rising, full curve, poor fit]

SMILES | AC50
c1ccc(Nc2nc(-c3cccnc3)nc3ccccc23)cc1 | 5.01 µM [rising, full curve]
O=C(Nc1cc(C(=O)N2CCCC2)ccc1N1CCCC1)c1ccccc1F | 12.6 µM [falling, partial curve]
CCC(C)(C)n1nnnc1C(c1cccc(C#N)c1)N1CCN(c2cc(C)ccc2C)CC1 (stereo not drawn) | 0.0794 µM [falling, single point]
COc1ccc(NC(=O)N(CCC(C)C)C(C)c2ccccn2)c(OC)c1 (stereo not drawn) | 12.6 µM [rising, partial curve]
Oc1ccc(C=Nc2cccc3ncccc23)c(O)c1 | 25.1 µM [rising, single point]
CCOC(=O)C1CCCN(C(=O)C2CCN(S(=O)(=O)CC)CC2)C1 (stereo not drawn) | 0.316 µM [falling, single point]
Cn1c(=O)c(-c2cccc(F)c2)nc2cncnc21 | 10 µM [rising, partial curve]
CCOC(=O)c1[nH]c(C)c(C(=O)NC2CCN(C(=O)OCC)CC2)c1C | 2.51 µM [rising, single point]
COc1cccc(-c2nn(C)c3sc(C(=O)NCc4ccccn4)cc23)c1 | 3.98 µM [rising, partial curve]
O=C(Cn1c2c(c(-c3ccccc3)cc1=O)CCCC2)N1CCCCCC1 | 20 µM [falling, single point]
CCOc1ccc(OCC)c(NC(=O)CSc2nc3cccnc3n2C)c1 | 2 µM [falling, partial curve]
Cc1ccc(S(=O)(=O)N2CCC(C(=O)N3CCC(C(=O)NCc4cccnc4)CC3)CC2)cc1 | 12.6 µM [rising, partial curve]
O=C1CN(/N=C\c2ccc([N+](=O)[O-])o2)C(=O)N1 | 12.6 µM [falling, single point]
COC(=O)C1CCN(C(=O)CCCOc2ccccc2)CC1 | 0.631 µM [rising, full curve, poor fit]
C=C(C)COc1ccc(-c2[nH]ncc2-c2ccccc2OC)c(O)c1 | 3.98 µM [falling, partial curve]
CCC(=O)N1CCc2cc(S(=O)(=O)NCCC(=O)N3CCc4ccccc4C3)ccc21 | 0.0316 µM [falling, full curve]
Cc1csc(=O)n1CCC(=O)O | 15.8 µM [rising, single point]
COC(=O)c1ccc(CSc2ccc3nnc(-c4cccnc4)n3n2)o1 | 10 µM [rising, partial curve]
O=C(O)c1cccc2c1C(=O)N(Cc1ccncc1)C2 | 3.98 µM [falling, full curve]
CCOc1ccccc1N1CCN(C(=O)c2cc3c(s2)CCC3)CC1 | 3.16 µM [falling, full curve, poor fit]
CCN(C(=O)c1cc2cc3ccc(C)cc3nc2o1)c1ccc(OC)cc1 | 12.6 µM [rising, partial curve, poor fit]

2 neighbouring records from above:
SMILES | AC50
CCOc1ccc(OCC)c(NC(=O)CSc2nc3cccnc3n2C)c1 | 2 µM [falling, partial curve]
Cc1ccc(S(=O)(=O)N2CCC(C(=O)N3CCC(C(=O)NCc4cccnc4)CC3)CC2)cc1 | 12.6 µM [rising, partial curve]
